Data source: PubChem BioAssay AID1259405 (NCATS, 2018)
In all, the deposit lists about 50,000 reagents; this is an unselected part. Over the whole deposit, about 4,000 (8%) are marked active. 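Mouse siRNA library applied to hamster cells; one well for each siRNA.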 Entries without a mark were called inactive. Reagents against one gene are numbered here.

- Purpose: 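Silenced genes that increase secreted GFP made by CHO cells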 (primary screen)
- Cells: Chinese hamster CHO-K1 ovary cells with stable secreted eGFP expression
- Knock-down reagent: single siRNA against mouse genes, 0.8 pmol siRNA per well (2 µl of 400 nM stock)
- Timing: 3 days
- Detection: 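Per-well intracellular GFP measured by laser scanning cytometry, plus viability from ATP luminescence, each relative to plate median of non-targeting control wells, in %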
- Scale: GFP, % of control: higher = more GFP per well, higher productivity; viability (ATP), % of control: higher = more viable cells (more ATP)
- Rule for the call: 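a knock-down is called active if GFP reaches 120% or more of non-targeting control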

Rnf186 (ring finger protein 186) #1 scored GFP, % of control 122 (active); viability (ATP), % of control 56.2.
Against Rnf186 (ring finger protein 186) #2, the entry reads GFP, % of control 44.3; viability (ATP), % of control 33.6.
Rnf186 (ring finger protein 186) #3 showed GFP, % of control 41.8; viability (ATP), % of control 58.3.
Silencing of Or52s1 (olfactory receptor family 52 subfamily S member 1) #1 came out at: GFP, % of control 123 (active); viability (ATP), % of control 60.5.
Or52s1 (olfactory receptor family 52 subfamily S member 1) #2 gave GFP, % of control 71.1; viability (ATP), % of control 70.2.
After knock-down of Or52s1 (olfactory receptor family 52 subfamily S member 1) #3, the record shows GFP, % of control 31.7; viability (ATP), % of control 81.6.
Silencing of Smg7 (SMG7 nonsense mediated mRNA decay factor) #1 resulted in: GFP, % of control 84.9; viability (ATP), % of control 63.4.
Smg7 (SMG7 nonsense mediated mRNA decay factor) #2 scored GFP, % of control 55.5; viability (ATP), % of control 29.6.
Against Smg7 (SMG7 nonsense mediated mRNA decay factor) #3, the entry reads GFP, % of control 71.2; viability (ATP), % of control 73.8.
For Dis3 #1 the deposit lists GFP, % of control 75.1; viability (ATP), % of control 43.
Silencing of Dis3 #2 resulted in: GFP, % of control 68.5; viability (ATP), % of control 64.5.
For Dis3 #3, the values are GFP, % of control 91.3; viability (ATP), % of control 60.9.
Slc19a3 #1 gave GFP, % of control 165 (active); viability (ATP), % of control 137.
Slc19a3 #2 showed GFP, % of control 113; viability (ATP), % of control 72.4.
Slc19a3 #3 showed GFP, % of control 86.7; viability (ATP), % of control 93.6.
Depletion of Hgfac (hepatocyte growth factor activator) #1 came out at: GFP, % of control 114; viability (ATP), % of control 64.2.
Against Hgfac (hepatocyte growth factor activator) #2 the deposit lists GFP, % of control 48.3; viability (ATP), % of control 60.6.
With knock-down of Hgfac (hepatocyte growth factor activator) #3, the record shows GFP, % of control 68.2; viability (ATP), % of control 46.7.
Mcm3ap #1 scored GFP, % of control 50.8; viability (ATP), % of control 55.5.
Mcm3ap #2 showed GFP, % of control 52.6; viability (ATP), % of control 75.3.
For Mcm3ap #3, the entry reads GFP, % of control 106; viability (ATP), % of control 46.1.
Fhl1 (four and a half LIM domains 1) #1 gave GFP, % of control 100; viability (ATP), % of control 92.6.
For Fhl1 (four and a half LIM domains 1) #2 the deposit lists GFP, % of control 55; viability (ATP), % of control 57.9.
Depletion of Tspyl1 (testis-specific protein, Y-encoded-like 1) #1 gave: GFP, % of control 55.7; viability (ATP), % of control 81.2.
After knock-down of Tspyl1 (testis-specific protein, Y-encoded-like 1) #2, the screen gave GFP, % of control 63.1; viability (ATP), % of control 33.1.
With knock-down of Tspyl1 (testis-specific protein, Y-encoded-like 1) #3 the results were GFP, % of control 104; viability (ATP), % of control 59.4.
Heyl (hairy/enhancer-of-split related with YRPW motif-like) #1 gave GFP, % of control 62.8; viability (ATP), % of control 59.8.
Against Heyl (hairy/enhancer-of-split related with YRPW motif-like) #2, the values are GFP, % of control 70.5; viability (ATP), % of control 63.9.
Against Heyl (hairy/enhancer-of-split related with YRPW motif-like) #3, the entry reads GFP, % of control 117; viability (ATP), % of control 107.

As entered above.
Dis3 #3, GFP, % of control → 91.3
Mcm3ap #1, viability (ATP), % of control = 55.5
